In patent EP2703005A1, “Inhibitors of alpha6 Integrin/E-Cadherin Complex” (Università Degli Studi Di Torino, priority 2012, dated 2014):
Results are given in words; binding and its absence hold for the method and conditions named. For part of these data: Binding seen in cells or lysates may run through a third protein. Some entries that bind do so weakly or less than the wild type.

The chains behind the UniProt entries cited, without tags or fusion partners. Where a name states a change or a piece, a line headed by the entry shows the natural chain unless it says otherwise.
UniProt P12830: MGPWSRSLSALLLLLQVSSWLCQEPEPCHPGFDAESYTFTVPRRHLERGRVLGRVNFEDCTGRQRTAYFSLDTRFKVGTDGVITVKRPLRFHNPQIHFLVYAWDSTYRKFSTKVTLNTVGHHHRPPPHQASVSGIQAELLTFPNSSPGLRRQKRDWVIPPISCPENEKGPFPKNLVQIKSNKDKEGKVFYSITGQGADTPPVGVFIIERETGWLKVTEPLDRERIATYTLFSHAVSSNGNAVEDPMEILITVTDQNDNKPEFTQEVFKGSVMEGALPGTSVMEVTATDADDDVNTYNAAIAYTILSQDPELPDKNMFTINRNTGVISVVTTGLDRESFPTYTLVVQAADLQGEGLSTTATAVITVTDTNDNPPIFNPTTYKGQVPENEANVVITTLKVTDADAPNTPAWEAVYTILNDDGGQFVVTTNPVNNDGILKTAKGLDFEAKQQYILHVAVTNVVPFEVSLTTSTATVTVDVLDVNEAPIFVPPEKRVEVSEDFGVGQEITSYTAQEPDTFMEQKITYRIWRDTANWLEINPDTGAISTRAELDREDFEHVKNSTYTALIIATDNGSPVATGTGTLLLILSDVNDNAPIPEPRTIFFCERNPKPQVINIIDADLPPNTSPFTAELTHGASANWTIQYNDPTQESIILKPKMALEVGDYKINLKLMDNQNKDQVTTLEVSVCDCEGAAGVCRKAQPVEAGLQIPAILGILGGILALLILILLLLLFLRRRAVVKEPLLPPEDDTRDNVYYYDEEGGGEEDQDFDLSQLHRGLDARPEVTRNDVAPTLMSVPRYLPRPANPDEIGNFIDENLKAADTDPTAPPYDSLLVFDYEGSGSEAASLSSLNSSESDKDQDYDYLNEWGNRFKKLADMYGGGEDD

Assays:
[1] = target: E-cadherin (human) (UniProt P12830); test: co-immunoprecipitation from NCI-H630 lysate, both directions (Figure 3A)
[2] = target: E-cadherin (human) (UniProt P12830); test: co-immunoprecipitation from NCI-H630 lysate, immunoblot
[3] = target: E-cadherin (human) (UniProt P12830); test: immunoprecipitation with anti-E-cadherin, blot with anti-α6 integrin, pooled liver metastases (Figure 3B)
[4] = target: E-cadherin (human) (UniProt P12830); test: summary of confocal imaging and co-immunoprecipitation
[5] = target: E-cadherin (human) (UniProt P12830); test: co-immunoprecipitation from 5 pooled human liver metastases, immunoblot
[6] = target: α6 integrin/E-cadherin receptor complex on NCI-H630 cells (human) (UniProt P23229); test: adhesion of silenced NCI-H630 cells to coated recombinant angiopoietin-like 6 (Figure 10C)

Measured: binding

B1: α6 integrin (receptor)
chain: FNLDTREDNVIRKYGDPGSLFGFSLAMHWQLQPEDKRLLLVGAPRAEALPLQRANRTGGLYSCDITARGPCTRIEFDNDADPTSESKEDQWMGVTVQSQGPGGKVVTCAHRYEKRQHVNTKQESRDIFGRCYVLSQNLRIEDDMDGGDWSFCDGRLRGHEKFGSCQQGVAATFTKDFHYIVFGAPGTYNWKGIVRVEQKNNTFFDMNIFEDGPYEVGGETEHDESLVPVPANSYLGFSLDSGKGIVSKDEITFVSGAPRANHSGAVVLLKRDMKSAHLLPEHIFDGEGLASSFGYDVAVVDLNKDGWQDIVIGAPQYFDRDGEVGGAVYVYMNQQGRWNNVKPIRLNGTKDSMFGIAVKNIGDINQDGYPDIAVGAPYDDLGKVFIYHGSANGINTKPTQVLKGISPYFGYSIAGNMDLDRNSYPDVAVGSLSDSVTIFRSRPVINIQKTITVTPNRIDLRQKTACGAPSGICLQVKSCFEYTANPAGYNPSISIVGTLEAEKERRKSGLSSRVQFRNQGSEPKYTQELTLKRQKQKVCMEETLWLQDNIRDKLRPIPITASVEIQEPSSRRRVNSLPEVLPILNSDEPKTAHIDVHFLKEGCGDDNVCNSNLKLEYKFCTREGNQDKFSYLPIQKGVPELVLKDQKDIALEITVTNSPSNPRNPTKDGDDAHEAKLIATFPDTLTYSAYRELRAFPEKQLSCVANQNGSQADCELGNPFKRNSNVTFYLVLSTTEVTFDTPDLDINLKLETTSNQDNLAPITAKAKVVIELLLSVSGVAKPSQVYFGGTVVGEQAMKSEDEVGSLIEYEFRVINLGKPLTNLGTATLNIQWPKEISNGKWLLYLVKVESKGLEKVTCEPQKEINSLNLTESHNSRKKREITEKQIDDNRKFSLFAERKYQTLNCSVNVNCVNIRCPLRGLDSKASLILRSRLWNSTFLEEYSKLNYLDILMRAFIDVTAAAENIRLPNAGTQVRVTVFPSKTVAQYSGVPWWIILVAILAGILMLALLVFILWKCGFFKRNKKDHYDATYHKAEIHAQPSDKERLTSDA
binds: [1] | [2] | [3] | [4] | [5]

B2: recombinant angiopoietin-like 6 (ligand, UniProt Q8NI99 21-470, looked up)
chain: RAGAPRCTYTFVLPPQKFTGAVCWSGPASTRATPEAANASELAALRMRVGRHEELLRELQRLAAADGAVAGEVRALRKESRGLSARLGQLRAQLQHEAGPGAGPGADLGAEPAAALALLGERVLNASAEAQRAAARFHQLDVKFRELAQLVTQQSSLIARLERLCPGGAGGQQQVLPPPPLVPVVPVRLVGSTSDTSRMLDPAPEPQRDQTQRQQEPMASPMPAGHPAVPTKPVGPWQDCAEARQAGHEQSGVYELRVGRHVVSVWCEQQLEGGGWTVIQRRQDGSVNFFTTWQHYKAGFGRPDGEYWLGLEPVYQLTSRGDHELLVLLEDWGGRGARAHYDGFSLEPESDHYRLRLGQYHGDAGDSLSWHNDKPFSTVDRDRDSYSGNCALYQRGGWWYHACAHSNLNGVWHHGGHYRSRYQDGVYWAEFRGGAYSLRKAAMLIRPLKL
binds: [6]
